Data from US20190185578A1.
No constants are given. Whether binding was seen depends on the method and setting. Some entries that bind do so weakly or less than the wild type.

Amino acid sequences for entries named in this document (tags omitted). Residues count along the entry.
UniProt P00742, residues 41-488: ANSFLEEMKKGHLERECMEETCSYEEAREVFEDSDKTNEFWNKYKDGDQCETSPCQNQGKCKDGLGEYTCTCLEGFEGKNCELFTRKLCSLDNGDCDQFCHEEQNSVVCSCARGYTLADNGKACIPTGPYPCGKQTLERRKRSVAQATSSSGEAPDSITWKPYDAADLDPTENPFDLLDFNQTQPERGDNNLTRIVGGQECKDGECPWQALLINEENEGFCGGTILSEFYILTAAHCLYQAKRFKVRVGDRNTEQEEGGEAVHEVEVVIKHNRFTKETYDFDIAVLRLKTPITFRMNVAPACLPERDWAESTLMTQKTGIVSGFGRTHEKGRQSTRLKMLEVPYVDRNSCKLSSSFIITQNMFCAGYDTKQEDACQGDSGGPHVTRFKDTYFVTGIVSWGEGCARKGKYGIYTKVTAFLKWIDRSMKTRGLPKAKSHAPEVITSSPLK

B1: JNK263 (heavy chain SEQ ID NO: 46 and light chain SEQ ID NO: 22) (antibody, V domains shown)
VH: QVQLVQSGSELKKPGASVKVSCKASGYTFTDNNMDWVRQAPGQGLEWMGDINTRSGGSIYNEEFQDRVIMTVDKSTDTAYMELSSLRSEDTATYHCARRKSYGYYLDEWGEGTLVTVSS
VL: DIQLTQSPSSLSASVGDSVTITCRASQSFTNYLNWYQQKPGKAPKVLIYGASTLQTGVPSRFSGGGSGAEYTLTISNLQPDDSATYYCQQSYSTPWTFGQGTKVEIK
B2: JNK348 (heavy chain SEQ ID NO: 46 and light chain SEQ ID NO: 24) (antibody, V domains shown)
VH: QVQLVQSGSELKKPGASVKVSCKASGYTFTDNNMDWVRQAPGQGLEWMGDINTRSGGSIYNEEFQDRVIMTVDKSTDTAYMELSSLRSEDTATYHCARRKSYGYYLDEWGEGTLVTVSS
VL: DIVMTQTPLSLSVTPGQPASISCKSSQSLLRSDGKTYLQWYLQKPGQSPQLLIYEVSSRFSGVPERFSGSGSGTDFTLEISRVEADDVGVYYCMQGLHLPWTFGQGTKVEVK
B3: JNK339 (heavy chain SEQ ID NO: 46 and light chain SEQ ID NO: 23) (antibody, V domains shown)
VH: QVQLVQSGSELKKPGASVKVSCKASGYTFTDNNMDWVRQAPGQGLEWMGDINTRSGGSIYNEEFQDRVIMTVDKSTDTAYMELSSLRSEDTATYHCARRKSYGYYLDEWGEGTLVTVSS
VL: DIVMTQSPSSLSASVGDRVTITCRTSQYIGTYLNWYQQKPGKAPKLLINSVSRLQTGVPSRFTGGGSGTDFTLTISSLQPEDFATYYCQQGYSTPWTFGQGTRVEIK
B4: JNK131 (heavy chain SEQ ID NO: 46 and light chain SEQ ID NO: 19) (antibody, V domains shown)
VH: QVQLVQSGSELKKPGASVKVSCKASGYTFTDNNMDWVRQAPGQGLEWMGDINTRSGGSIYNEEFQDRVIMTVDKSTDTAYMELSSLRSEDTATYHCARRKSYGYYLDEWGEGTLVTVSS
VL: NIQMTQSPSSVSASVGDTVTITCRASQYISDRLAWYQQKPGRPPKVLIYRASNLQSGVPSRFRGSGSGTDFTLTINSLQPEDFAIYYCQQAKNFPWAFGQGTKVEFK
B5: JNL059 (heavy chain SEQ ID NO: 46 and light chain SEQ ID NO: 37) (antibody, V domains shown)
VH: QVQLVQSGSELKKPGASVKVSCKASGYTFTDNNMDWVRQAPGQGLEWMGDINTRSGGSIYNEEFQDRVIMTVDKSTDTAYMELSSLRSEDTATYHCARRKSYGYYLDEWGEGTLVTVSS
VL: NFMLTQPPSVSGAPRQRVTISCSGSSSNIGNRAVSWYQHVPGKPPRLIVYHDDVLSSGVSGRFSASKSGTSASLAISGLQSEDEADYFCAAWDARLNGWVFGGGTKLTVL
B6: JNL036 (heavy chain SEQ ID NO: 46 and light chain SEQ ID NO: 29) (antibody, V domains shown)
VH: QVQLVQSGSELKKPGASVKVSCKASGYTFTDNNMDWVRQAPGQGLEWMGDINTRSGGSIYNEEFQDRVIMTVDKSTDTAYMELSSLRSEDTATYHCARRKSYGYYLDEWGEGTLVTVSS
VL: QSVVTQPPSVSAAPGQKVTISCSGSSSNIGNNYVSWYQQLPGTAPKLLIYDNNKRPSGIPDRFSGSKSGTSATLGITGLQTGDEADYYCGTWDSSLSAYVFGTGTKVTVL
B7: JNL281 (heavy chain SEQ ID NO: 46 and light chain SEQ ID NO: 41) (antibody, V domains shown)
VH: QVQLVQSGSELKKPGASVKVSCKASGYTFTDNNMDWVRQAPGQGLEWMGDINTRSGGSIYNEEFQDRVIMTVDKSTDTAYMELSSLRSEDTATYHCARRKSYGYYLDEWGEGTLVTVSS
VL: QSALTQPRSVSASPGQSVTISCTGTSSDVGFYKYVSWYQQYPGKAPKLMIYDVSKRPSGVPDRFSGSKSGNTASLTISGLQAEDEADYYCCSYAGSNTVFGTGTKVTVL
B8: JNL260 (heavy chain SEQ ID NO: 46 and light chain SEQ ID NO: 35) (antibody, V domains shown)
VH: QVQLVQSGSELKKPGASVKVSCKASGYTFTDNNMDWVRQAPGQGLEWMGDINTRSGGSIYNEEFQDRVIMTVDKSTDTAYMELSSLRSEDTATYHCARRKSYGYYLDEWGEGTLVTVSS
VL: QSVLTQPPSASGTPGQRVNISCSGSRSNIANNYVSWYQHLPGTVPKVLISDNDQRSSGVPDRFSGSKSGTSASLAISGLRSEDEADYYCAAWDDRMRGFVFGSGTKVTVL
B9: JNL208 (heavy chain SEQ ID NO: 46 and light chain SEQ ID NO: 33) (antibody, V domains shown)
VH: QVQLVQSGSELKKPGASVKVSCKASGYTFTDNNMDWVRQAPGQGLEWMGDINTRSGGSIYNEEFQDRVIMTVDKSTDTAYMELSSLRSEDTATYHCARRKSYGYYLDEWGEGTLVTVSS
VL: QSVLTQPPSVSGAPGQRVTVSCNGGSSNIGTGYDVHWYQQLPGTAPKIVIFGNSNRPSGVPGRFSGSKSGTSASLVIAGLQAEDEADYYCQSYDRSLSGYVFGTGTKVTVL
B10: JNK378 (heavy chain SEQ ID NO: 46 and light chain SEQ ID NO: 27) (antibody, V domains shown)
VH: QVQLVQSGSELKKPGASVKVSCKASGYTFTDNNMDWVRQAPGQGLEWMGDINTRSGGSIYNEEFQDRVIMTVDKSTDTAYMELSSLRSEDTATYHCARRKSYGYYLDEWGEGTLVTVSS
VL: NIQMTQSPSSLSASVGDTVTITCRASQDISSWLAWYQHKPGRAPRSLIYTASSLQSGVPSRFSGSGSGTDFTLTITNLQPEDFATYYCQQAHSFPWSFGPGTNVEIK
B11: JNL226 (heavy chain SEQ ID NO: 46 and light chain SEQ ID NO: 38) (antibody, V domains shown)
VH: QVQLVQSGSELKKPGASVKVSCKASGYTFTDNNMDWVRQAPGQGLEWMGDINTRSGGSIYNEEFQDRVIMTVDKSTDTAYMELSSLRSEDTATYHCARRKSYGYYLDEWGEGTLVTVSS
VL: QSALTQPASVSGSPGQSITISCTGTSSDVGGYNYVSWYQQHPGKAPKLMIYDVSNRPSGVSNRFSGSKSGNTASLTISGLQAEDEADYYCSSYTSSSTLFGTGTKVTVL
B12: JNK351 (heavy chain SEQ ID NO: 46 and light chain SEQ ID NO: 25) (antibody, V domains shown)
VH: QVQLVQSGSELKKPGASVKVSCKASGYTFTDNNMDWVRQAPGQGLEWMGDINTRSGGSIYNEEFQDRVIMTVDKSTDTAYMELSSLRSEDTATYHCARRKSYGYYLDEWGEGTLVTVSS
VL: EIVLTQSPGTLSLSPGESGTLSCRASQSVNTRYLAWYYQRPGQVPRLLIYGTSNRATGIPDRFSGSGSGTDFTLTISRLEPGDSGVYYCQQSRSSQWTFGQGTKVEIK
B13: JNL056 (heavy chain SEQ ID NO: 46 and light chain SEQ ID NO: 36) (antibody, V domains shown)
VH: QVQLVQSGSELKKPGASVKVSCKASGYTFTDNNMDWVRQAPGQGLEWMGDINTRSGGSIYNEEFQDRVIMTVDKSTDTAYMELSSLRSEDTATYHCARRKSYGYYLDEWGEGTLVTVSS
VL: QSVLTQPPSVSAAPGQKVTISCSGSSSNIGNNYVSWYQQLPGTAPKLLIYDNNKRPSGIPDRFSGSKSGTSATLGITGLQTGDEADYYCGTWDSSLSAYVFGTGTKVTVL
B14: JNL176 (heavy chain SEQ ID NO: 46 and light chain SEQ ID NO: 32) (antibody, V domains shown)
VH: QVQLVQSGSELKKPGASVKVSCKASGYTFTDNNMDWVRQAPGQGLEWMGDINTRSGGSIYNEEFQDRVIMTVDKSTDTAYMELSSLRSEDTATYHCARRKSYGYYLDEWGEGTLVTVSS
VL: SVLTQPPSLSAAPGQRVTISCSGSSSNIGNHLVSWHQQFPGTAPKALIYDNDRRPSGIPDRFSGSKSGTSATLDITGLQTGDEADYYCATWDASLRAVVFGGGTKLTVL
B15: JNL224 (heavy chain SEQ ID NO: 46 and light chain SEQ ID NO: 34) (antibody, V domains shown)
VH: QVQLVQSGSELKKPGASVKVSCKASGYTFTDNNMDWVRQAPGQGLEWMGDINTRSGGSIYNEEFQDRVIMTVDKSTDTAYMELSSLRSEDTATYHCARRKSYGYYLDEWGEGTLVTVSS
VL: SYVLTQPRSVSGSPGQSVTISCTGTSSDVGRYNYVSWYQQRPGKAPKVMIYDVIKRPSGVPARFSGSKSGNTASLTISGLQPEDEADYYCSSYAGASSFVFGTGTKVTVL
B16: JNK382 (heavy chain SEQ ID NO: 46 and light chain SEQ ID NO: 28) (antibody, V domains shown)
VH: QVQLVQSGSELKKPGASVKVSCKASGYTFTDNNMDWVRQAPGQGLEWMGDINTRSGGSIYNEEFQDRVIMTVDKSTDTAYMELSSLRSEDTATYHCARRKSYGYYLDEWGEGTLVTVSS
VL: DIVMTQSPSSVSASVGDRVTITCRASQGISKWLAWYQQKPGKAPKLLIDSATNLRSGVPSRFSGSGSGTDFTLTISSLQPEDLAFYYCQQGKSFPWTFGQGTKVEIK
B17: JNK360 (heavy chain SEQ ID NO: 46 and light chain SEQ ID NO: 26) (antibody, V domains shown)
VH: QVQLVQSGSELKKPGASVKVSCKASGYTFTDNNMDWVRQAPGQGLEWMGDINTRSGGSIYNEEFQDRVIMTVDKSTDTAYMELSSLRSEDTATYHCARRKSYGYYLDEWGEGTLVTVSS
VL: VIWMTQSPSSVSASVGDRVTITCRASQGINSRLVWYQQKPGTAPKVLIYAASSLQSGVPSRFSGSGSGTDFTLTINSLQPEDFATYYCQQGNTFPWTFGQGTKVEVK
B18: JNL072 (heavy chain SEQ ID NO: 46 and light chain SEQ ID NO: 30) (antibody, V domains shown)
VH: QVQLVQSGSELKKPGASVKVSCKASGYTFTDNNMDWVRQAPGQGLEWMGDINTRSGGSIYNEEFQDRVIMTVDKSTDTAYMELSSLRSEDTATYHCARRKSYGYYLDEWGEGTLVTVSS
VL: SYELTQPLSVSVAPGQTARIPCGGNNIGNKNVHWYQQKPGQAPVLVIYRDTNRPSGIPERFSGSNSGHTATLTISGAQAGDEADYSCQVWDSGTVVFGGGTKLTVL
B19: JNL250 (heavy chain SEQ ID NO: 46 and light chain SEQ ID NO: 39) (antibody, V domains shown)
VH: QVQLVQSGSELKKPGASVKVSCKASGYTFTDNNMDWVRQAPGQGLEWMGDINTRSGGSIYNEEFQDRVIMTVDKSTDTAYMELSSLRSEDTATYHCARRKSYGYYLDEWGEGTLVTVSS
VL: QSVLTQPASVSGSPGQSITISCTGTSSDVGGYNYVSWYQQHPGKAPKLTIYDVSNRPSGVSNRFSGSKSGSSASLTISGLQAEDEADYYCSSYTTSGTYVFGTGTTVTVL
B20: JNL095 (heavy chain SEQ ID NO: 46 and light chain SEQ ID NO: 31) (antibody, V domains shown)
VH: QVQLVQSGSELKKPGASVKVSCKASGYTFTDNNMDWVRQAPGQGLEWMGDINTRSGGSIYNEEFQDRVIMTVDKSTDTAYMELSSLRSEDTATYHCARRKSYGYYLDEWGEGTLVTVSS
VL: SYVLTQPVSVSVARGQTATITCEGNHIGDKHVHWYHQRPGQAPILVMFRDARRPSGIPERLSGSNSGNTASLTISGAQAGDEGDYYCQVWDSSSAVVFGGGTKVTVV
B21: JNL263 (heavy chain SEQ ID NO: 46 and light chain SEQ ID NO: 40) (antibody, V domains shown)
VH: QVQLVQSGSELKKPGASVKVSCKASGYTFTDNNMDWVRQAPGQGLEWMGDINTRSGGSIYNEEFQDRVIMTVDKSTDTAYMELSSLRSEDTATYHCARRKSYGYYLDEWGEGTLVTVSS
VL: QSALTQPRSVSGSPGQSVTISCTGTSSDVGGYNYVSWYQQHPGKAPKLMIYDVSKRPSGVPDRFSGSKSGNTASLTISGLQAEDEADYYCCSYAGRRGYVFGTGTKVTVL

These binders were tested against biotinylated human FX (human) (UniProt P00742) (assay: panning of an L chain library (fixed ACE910 H chain) on biotinylated human FX; no read-out printed).

binding, binds:
B1
B2
B3
B4
B5
B6
B7
B8
B9
B10
B11
B12
B13
B14
B15
B16
B17
B18
B19
B20
B21
